This test addresses CUL4B (human (endogenous in NT2)) (UniProt Q13620). As to the kind of experiment: affinity purification with mass spectrometry; IP with an antibody for CUL4B, precipitated proteins identified by mass spectrometry (IP/Mas); cells not named for this experiment.

Chains of the proteins cited; added tags and fusions are not shown.
UniProt Q13620: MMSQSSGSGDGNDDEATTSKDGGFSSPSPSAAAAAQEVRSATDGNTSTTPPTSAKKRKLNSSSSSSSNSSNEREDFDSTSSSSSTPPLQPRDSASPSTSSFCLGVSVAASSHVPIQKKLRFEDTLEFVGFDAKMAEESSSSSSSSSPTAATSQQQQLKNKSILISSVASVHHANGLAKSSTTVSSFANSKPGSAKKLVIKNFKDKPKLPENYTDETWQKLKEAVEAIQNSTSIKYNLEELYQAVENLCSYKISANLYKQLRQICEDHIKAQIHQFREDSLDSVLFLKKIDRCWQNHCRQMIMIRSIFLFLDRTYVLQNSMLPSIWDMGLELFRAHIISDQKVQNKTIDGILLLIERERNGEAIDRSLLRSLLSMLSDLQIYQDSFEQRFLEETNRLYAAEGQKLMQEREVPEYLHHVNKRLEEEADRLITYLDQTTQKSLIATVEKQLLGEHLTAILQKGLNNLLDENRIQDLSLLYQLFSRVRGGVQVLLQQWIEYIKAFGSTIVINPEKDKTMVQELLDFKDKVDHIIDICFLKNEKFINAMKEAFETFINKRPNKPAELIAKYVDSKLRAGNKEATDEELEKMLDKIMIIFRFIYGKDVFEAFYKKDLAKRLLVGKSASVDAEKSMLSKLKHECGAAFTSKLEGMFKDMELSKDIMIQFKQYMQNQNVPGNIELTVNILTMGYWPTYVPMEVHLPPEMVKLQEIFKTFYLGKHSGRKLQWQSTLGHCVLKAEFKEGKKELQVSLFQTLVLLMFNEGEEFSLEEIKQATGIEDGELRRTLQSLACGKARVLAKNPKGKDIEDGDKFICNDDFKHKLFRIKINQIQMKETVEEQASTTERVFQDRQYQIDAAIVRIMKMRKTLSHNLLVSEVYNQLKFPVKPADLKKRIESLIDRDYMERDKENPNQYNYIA
UniProt P51449: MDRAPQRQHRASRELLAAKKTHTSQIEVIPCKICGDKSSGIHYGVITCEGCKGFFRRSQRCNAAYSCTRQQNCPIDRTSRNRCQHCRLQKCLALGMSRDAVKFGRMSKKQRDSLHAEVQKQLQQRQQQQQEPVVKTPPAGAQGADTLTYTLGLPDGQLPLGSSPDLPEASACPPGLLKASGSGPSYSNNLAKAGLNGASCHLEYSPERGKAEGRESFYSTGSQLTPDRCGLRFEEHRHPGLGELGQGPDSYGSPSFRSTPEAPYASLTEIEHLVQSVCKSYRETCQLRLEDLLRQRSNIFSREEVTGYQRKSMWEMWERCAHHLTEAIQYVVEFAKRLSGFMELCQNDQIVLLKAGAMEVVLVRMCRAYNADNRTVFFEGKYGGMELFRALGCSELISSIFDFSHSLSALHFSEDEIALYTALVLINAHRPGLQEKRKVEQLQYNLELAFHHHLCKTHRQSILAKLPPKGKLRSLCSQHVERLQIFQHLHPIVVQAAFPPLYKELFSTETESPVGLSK

Results are given in words; binding and its absence hold for the method and conditions named. Binding seen in cells or lysates may run through a third protein. Here binding means that the protein was enriched with, or labelled near, the bait; the list need not be complete.

As for “retinoic acid-related orphan nuclear receptor gamma (from UniProt P51449 1-518)”, the binding result is “binds”.

The values are drawn from paper PMC6466687.
